Results taken from article PMC10111413 (ACS Infectious Diseases, 2023).
Strings that start with PEPTIDE1 are HELM notation: dots part the residues, brackets hold end groups and non-standard residues.

Assays:
[1] = general procedure: Fmoc solid-phase peptide synthesis; 2-chlorotrityl (2-CT) resin; BOP/DIPEA; conditions: whole synthesis, scale of the general procedure 0.25 mmol
[2] = general procedure: Fmoc solid-phase peptide synthesis; 2-CT; BOP/DIPEA; conditions: whole synthesis, over 30 steps, scale 0.25 mmol

Row | Substance | isolated yield ([1]; overall) [%] | further results
1 | PEPTIDE1{[4MeHex].[dS].[dY].[dW].[D-Orn].[Orn].G.[D-Orn].W.T.I.G.S.A}$PEPTIDE1,PEPTIDE1,10:R3-14:R2$$$V2.0 | 9.1 | –
2 | PEPTIDE1{[4MeHex].[dS].[dY].[dW].[D-Orn].[Orn].G.[D-Orn].W.T.I.G.S.G}$PEPTIDE1,PEPTIDE1,10:R3-14:R2$$$V2.0 | 5.4 | final HPLC purity ([1]; HPLC and NMR, fractions assessed by HPLC and LC-MS): 95%; isolated yield ([1]; over 28 steps): 5%
3 | PEPTIDE1{[4MeHex].[dS].[dY].[dW].[D-Orn].[Orn].G.[D-Orn].W.T.I.G.S.[dA]}$PEPTIDE1,PEPTIDE1,10:R3-14:R2$$$V2.0 | 9.5 | –
4 | PEPTIDE1{[4MeHex].[dS].[dY].[dW].[D-Orn].[Orn].G.[D-Orn].W.T.I.G.[dS].A}$PEPTIDE1,PEPTIDE1,10:R3-14:R2$$$V2.0 | 3.2 | –
5 | PEPTIDE1{[4MeHex].[dS].[dY].[dW].[D-Orn].[Orn].G.[D-Orn].W.T.I.G.[dS].G}$PEPTIDE1,PEPTIDE1,10:R3-14:R2$$$V2.0 | 6.8 | –
6 | PEPTIDE1{[4MeHex].[dS].[dY].[dW].[D-Orn].[Orn].G.[D-Orn].W.T.I.G.[dS].[dA]}$PEPTIDE1,PEPTIDE1,10:R3-14:R2$$$V2.0 | 5.7 | –
7 | PEPTIDE1{[4MeHex].[dS].[dY].[dW].[D-Orn].[Orn].G.[D-Orn].W.[Dap].I.G.S.G}$PEPTIDE1,PEPTIDE1,10:R3-14:R2$$$V2.0 | – | isolated yield [2]: 18%
